According to the supplement of paper PMC6411743:
± gives the standard deviation of the averaged measurements. The list shows a part of the results, in another mix than the full data. Most values lie at the level of the controls, where differences are scatter.

Amino acid sequences for entries named in this document (tags omitted). A change or cut given only in a name is not applied to a line headed by its entry.
UniProt O95707: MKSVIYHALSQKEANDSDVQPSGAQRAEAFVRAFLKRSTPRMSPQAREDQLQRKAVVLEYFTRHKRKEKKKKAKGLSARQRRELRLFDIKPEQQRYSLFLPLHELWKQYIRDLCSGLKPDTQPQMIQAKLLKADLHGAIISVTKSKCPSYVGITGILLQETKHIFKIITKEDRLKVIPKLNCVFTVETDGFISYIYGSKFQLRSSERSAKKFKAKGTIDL
UniProt O43402: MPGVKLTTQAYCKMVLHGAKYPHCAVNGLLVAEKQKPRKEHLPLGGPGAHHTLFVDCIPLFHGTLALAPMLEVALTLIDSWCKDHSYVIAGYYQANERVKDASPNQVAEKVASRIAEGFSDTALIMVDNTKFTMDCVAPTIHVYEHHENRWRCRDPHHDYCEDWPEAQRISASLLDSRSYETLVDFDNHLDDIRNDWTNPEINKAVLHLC
UniProt O60291: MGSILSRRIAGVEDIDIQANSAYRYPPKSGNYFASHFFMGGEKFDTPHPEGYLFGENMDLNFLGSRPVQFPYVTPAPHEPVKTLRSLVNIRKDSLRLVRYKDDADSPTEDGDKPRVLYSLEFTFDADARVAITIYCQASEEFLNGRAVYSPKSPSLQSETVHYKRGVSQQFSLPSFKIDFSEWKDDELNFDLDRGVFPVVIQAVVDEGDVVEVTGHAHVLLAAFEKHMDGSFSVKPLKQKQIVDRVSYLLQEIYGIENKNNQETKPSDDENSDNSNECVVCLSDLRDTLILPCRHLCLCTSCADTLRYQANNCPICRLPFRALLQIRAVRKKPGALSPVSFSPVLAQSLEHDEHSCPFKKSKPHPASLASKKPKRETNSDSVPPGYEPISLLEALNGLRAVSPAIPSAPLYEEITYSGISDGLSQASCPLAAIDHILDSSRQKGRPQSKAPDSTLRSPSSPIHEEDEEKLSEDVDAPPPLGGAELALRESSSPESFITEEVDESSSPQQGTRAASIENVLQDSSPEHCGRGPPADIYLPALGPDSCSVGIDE
UniProt O43303: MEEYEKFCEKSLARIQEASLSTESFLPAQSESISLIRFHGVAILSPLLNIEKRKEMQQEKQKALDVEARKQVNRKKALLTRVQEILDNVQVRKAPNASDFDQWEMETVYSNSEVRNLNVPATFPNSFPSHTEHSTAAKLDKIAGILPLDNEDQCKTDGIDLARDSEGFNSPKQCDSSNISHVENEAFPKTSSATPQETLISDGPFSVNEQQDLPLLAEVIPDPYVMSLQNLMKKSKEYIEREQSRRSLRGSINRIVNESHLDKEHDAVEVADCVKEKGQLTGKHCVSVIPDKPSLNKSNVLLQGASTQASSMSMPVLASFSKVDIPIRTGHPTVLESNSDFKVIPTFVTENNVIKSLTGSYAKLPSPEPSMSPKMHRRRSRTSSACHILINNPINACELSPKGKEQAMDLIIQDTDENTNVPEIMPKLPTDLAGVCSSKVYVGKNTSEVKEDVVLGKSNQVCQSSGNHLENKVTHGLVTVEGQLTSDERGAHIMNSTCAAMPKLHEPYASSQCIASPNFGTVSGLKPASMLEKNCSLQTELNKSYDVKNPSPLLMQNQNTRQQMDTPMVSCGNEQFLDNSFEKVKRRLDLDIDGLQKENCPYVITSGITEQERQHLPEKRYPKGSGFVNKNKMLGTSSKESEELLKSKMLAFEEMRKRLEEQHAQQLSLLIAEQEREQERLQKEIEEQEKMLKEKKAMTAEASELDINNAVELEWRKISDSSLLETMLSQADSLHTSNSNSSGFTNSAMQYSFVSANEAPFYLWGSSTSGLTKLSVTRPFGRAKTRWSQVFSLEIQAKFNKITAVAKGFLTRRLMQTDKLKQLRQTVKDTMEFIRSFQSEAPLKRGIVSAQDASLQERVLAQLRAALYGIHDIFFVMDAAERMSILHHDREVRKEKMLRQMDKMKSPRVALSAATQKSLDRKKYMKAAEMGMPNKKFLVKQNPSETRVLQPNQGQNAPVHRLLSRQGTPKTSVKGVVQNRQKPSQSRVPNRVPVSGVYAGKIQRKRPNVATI
UniProt Q96AB3: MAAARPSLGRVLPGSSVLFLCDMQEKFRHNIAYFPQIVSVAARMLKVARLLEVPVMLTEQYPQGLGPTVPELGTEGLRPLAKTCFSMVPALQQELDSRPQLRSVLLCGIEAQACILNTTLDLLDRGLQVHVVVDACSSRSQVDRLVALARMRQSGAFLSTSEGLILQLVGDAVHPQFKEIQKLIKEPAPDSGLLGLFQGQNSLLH
UniProt O43772: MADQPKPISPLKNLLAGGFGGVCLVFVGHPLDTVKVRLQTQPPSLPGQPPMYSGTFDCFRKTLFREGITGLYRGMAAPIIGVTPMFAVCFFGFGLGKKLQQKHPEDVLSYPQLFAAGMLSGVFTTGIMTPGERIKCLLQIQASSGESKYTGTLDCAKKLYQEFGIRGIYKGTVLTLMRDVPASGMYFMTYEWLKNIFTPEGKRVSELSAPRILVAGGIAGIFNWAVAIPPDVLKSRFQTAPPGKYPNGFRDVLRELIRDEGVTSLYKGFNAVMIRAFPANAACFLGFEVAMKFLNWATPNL
UniProt O14647: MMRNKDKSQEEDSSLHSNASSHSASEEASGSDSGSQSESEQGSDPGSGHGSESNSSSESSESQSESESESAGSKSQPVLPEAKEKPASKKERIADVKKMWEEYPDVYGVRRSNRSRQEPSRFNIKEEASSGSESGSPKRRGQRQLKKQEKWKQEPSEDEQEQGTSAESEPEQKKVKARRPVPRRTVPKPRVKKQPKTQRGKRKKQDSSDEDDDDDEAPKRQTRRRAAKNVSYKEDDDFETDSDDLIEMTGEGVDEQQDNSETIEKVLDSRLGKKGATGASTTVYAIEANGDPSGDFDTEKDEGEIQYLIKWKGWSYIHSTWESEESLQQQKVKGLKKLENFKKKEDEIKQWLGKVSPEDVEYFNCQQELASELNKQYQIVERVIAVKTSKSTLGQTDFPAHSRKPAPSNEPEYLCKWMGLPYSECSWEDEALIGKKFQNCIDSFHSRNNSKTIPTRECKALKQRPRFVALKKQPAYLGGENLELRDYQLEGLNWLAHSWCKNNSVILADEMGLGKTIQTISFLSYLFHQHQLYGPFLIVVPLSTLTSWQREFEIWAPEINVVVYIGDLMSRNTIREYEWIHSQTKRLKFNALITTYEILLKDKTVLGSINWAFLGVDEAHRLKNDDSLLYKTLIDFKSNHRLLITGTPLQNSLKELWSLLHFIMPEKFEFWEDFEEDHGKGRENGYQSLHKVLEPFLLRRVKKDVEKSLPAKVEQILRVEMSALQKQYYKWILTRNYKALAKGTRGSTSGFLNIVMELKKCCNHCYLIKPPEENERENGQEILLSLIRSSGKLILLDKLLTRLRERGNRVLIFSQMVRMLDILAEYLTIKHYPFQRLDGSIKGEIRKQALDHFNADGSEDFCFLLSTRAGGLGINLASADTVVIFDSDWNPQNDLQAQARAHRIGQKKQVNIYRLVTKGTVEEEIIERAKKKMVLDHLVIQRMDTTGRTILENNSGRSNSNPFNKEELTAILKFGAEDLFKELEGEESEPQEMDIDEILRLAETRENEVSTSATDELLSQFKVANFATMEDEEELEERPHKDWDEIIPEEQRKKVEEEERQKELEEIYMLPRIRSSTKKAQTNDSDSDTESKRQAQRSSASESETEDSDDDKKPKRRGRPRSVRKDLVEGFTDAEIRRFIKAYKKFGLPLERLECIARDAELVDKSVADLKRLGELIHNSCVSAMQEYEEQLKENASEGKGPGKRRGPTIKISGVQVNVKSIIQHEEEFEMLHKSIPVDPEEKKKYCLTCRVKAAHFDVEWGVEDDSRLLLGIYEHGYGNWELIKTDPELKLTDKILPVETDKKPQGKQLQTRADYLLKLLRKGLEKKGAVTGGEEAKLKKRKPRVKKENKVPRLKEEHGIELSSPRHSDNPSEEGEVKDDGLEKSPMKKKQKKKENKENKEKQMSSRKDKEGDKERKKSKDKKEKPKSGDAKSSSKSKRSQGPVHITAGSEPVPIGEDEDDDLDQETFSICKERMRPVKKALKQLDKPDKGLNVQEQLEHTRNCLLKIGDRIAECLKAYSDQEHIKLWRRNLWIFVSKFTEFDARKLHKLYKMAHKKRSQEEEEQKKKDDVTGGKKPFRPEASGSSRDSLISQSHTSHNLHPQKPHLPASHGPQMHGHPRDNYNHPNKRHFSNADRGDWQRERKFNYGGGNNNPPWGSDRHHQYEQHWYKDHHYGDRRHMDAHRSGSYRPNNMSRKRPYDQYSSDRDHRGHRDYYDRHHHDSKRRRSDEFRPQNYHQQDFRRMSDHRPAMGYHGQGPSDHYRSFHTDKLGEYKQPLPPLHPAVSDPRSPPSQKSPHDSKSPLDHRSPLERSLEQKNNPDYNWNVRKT
UniProt O15037: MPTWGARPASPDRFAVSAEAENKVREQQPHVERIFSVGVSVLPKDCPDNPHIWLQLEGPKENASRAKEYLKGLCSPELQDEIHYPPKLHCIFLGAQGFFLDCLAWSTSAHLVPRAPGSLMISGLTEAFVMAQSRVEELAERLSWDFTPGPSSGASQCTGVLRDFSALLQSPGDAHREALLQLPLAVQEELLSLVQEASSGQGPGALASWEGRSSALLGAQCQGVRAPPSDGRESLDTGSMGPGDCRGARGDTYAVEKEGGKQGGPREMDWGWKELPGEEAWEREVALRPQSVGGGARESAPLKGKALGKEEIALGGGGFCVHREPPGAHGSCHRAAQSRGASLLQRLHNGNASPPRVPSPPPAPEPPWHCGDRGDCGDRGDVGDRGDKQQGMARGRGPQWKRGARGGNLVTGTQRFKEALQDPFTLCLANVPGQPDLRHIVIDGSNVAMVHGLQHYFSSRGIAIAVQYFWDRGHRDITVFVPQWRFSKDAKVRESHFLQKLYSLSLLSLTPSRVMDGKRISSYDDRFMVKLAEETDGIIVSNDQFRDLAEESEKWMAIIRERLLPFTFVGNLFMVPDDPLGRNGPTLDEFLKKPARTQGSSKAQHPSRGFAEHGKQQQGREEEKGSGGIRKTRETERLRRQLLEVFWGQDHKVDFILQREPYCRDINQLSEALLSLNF
UniProt O14579: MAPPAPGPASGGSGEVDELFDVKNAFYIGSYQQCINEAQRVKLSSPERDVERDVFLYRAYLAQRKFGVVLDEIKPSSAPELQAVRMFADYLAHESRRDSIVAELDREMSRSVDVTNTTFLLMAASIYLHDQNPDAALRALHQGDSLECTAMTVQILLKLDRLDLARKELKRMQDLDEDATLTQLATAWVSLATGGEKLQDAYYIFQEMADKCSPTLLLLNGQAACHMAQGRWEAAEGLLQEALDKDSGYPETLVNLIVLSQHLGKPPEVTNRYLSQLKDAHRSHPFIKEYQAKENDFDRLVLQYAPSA
UniProt O14925: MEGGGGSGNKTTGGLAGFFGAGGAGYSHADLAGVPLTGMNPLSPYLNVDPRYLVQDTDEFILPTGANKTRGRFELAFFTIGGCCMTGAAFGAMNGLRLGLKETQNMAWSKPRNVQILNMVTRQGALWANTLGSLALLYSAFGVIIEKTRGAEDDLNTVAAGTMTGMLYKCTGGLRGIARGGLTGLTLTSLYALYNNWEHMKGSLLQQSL
UniProt Q8N0Y2: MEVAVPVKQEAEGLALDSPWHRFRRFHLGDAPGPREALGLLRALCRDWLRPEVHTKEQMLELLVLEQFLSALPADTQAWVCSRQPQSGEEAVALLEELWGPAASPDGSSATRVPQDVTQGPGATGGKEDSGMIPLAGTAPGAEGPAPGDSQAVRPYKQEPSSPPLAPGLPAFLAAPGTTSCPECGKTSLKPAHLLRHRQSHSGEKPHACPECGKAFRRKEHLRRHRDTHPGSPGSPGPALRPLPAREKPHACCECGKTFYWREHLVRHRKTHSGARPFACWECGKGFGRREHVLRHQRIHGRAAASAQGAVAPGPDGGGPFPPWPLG
UniProt O15066: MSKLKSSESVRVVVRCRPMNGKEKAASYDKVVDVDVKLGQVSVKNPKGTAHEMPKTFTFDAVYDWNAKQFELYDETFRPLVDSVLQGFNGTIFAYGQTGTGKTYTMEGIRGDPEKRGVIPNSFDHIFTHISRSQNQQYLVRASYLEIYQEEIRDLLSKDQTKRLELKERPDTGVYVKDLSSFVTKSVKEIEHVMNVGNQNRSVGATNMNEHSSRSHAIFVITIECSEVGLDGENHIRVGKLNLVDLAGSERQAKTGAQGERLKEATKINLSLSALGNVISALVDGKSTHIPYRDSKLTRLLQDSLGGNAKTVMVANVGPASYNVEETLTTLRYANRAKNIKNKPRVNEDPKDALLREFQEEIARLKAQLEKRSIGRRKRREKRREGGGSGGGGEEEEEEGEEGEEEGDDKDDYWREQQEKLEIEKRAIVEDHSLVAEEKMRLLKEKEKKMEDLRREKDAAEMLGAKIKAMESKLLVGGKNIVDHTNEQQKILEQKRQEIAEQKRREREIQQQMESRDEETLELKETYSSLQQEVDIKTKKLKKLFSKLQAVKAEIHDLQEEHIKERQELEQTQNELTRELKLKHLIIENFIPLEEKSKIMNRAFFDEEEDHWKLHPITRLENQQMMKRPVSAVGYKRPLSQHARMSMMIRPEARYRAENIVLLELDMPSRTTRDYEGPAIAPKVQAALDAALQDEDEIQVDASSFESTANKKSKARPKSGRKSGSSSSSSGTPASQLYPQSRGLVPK

Compound: Nc1ncnc2c1ncn2[C@@H]1O[C@H](COP(=O)(O)OP(=O)(O)NP(=O)(O)O)[C@@H](O)[C@H]1O [adenylyl imidodiphosphate]
Assay: NP40-soluble protein abundance relative to vehicle (solubility fold change) (ratio); higher = more soluble protein in presence of AMP-PNP
In short: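 Eight concentrations, 0.1 to 10 mM, were tested on Jurkat crude lysate for 10 min at room temperature and then 3 min at 37 °C, in three independent experiments. The lysate was solubilised with 0.8% NP40 and benzonase, ultracentrifuged, and the supernatant TMT-labelled for LC-MS/MS. Each value is the fold change against the detergent-processed vehicle in its own replicate, from vsn-normalised intensities.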

Target	NP40-soluble protein abundance (concentration: 0.1mM)	NP40-soluble protein abundance (concentration: 0.5mM)
UniProt O00221 and related entries	1 ± 0.035	1.01 ± 0.0032
K7EQV2 and related entries (UniProt O95707)	1.05 ± 0.036	0.968 ± 0.063
ZZEF1 (UniProt O43149)	0.998 ± 0.064	0.971 ± 0.047
UniProt O43402 and related entries	1.01 ± 0.014	0.981 ± 0.027
K7EK07 and related entries (UniProt P84243+K7EK07)	1 ± 0.053	1.01 ± 0.031
AGPS (UniProt O00116)	1 ± 0.011	0.995 ± 0.011
UniProt O43296	0.981 ± 0.032	1.009 ± 0.0093
UniProt O43399 and related entries	0.995 ± 0.036	1.04 ± 0.12
TOR1B (UniProt O14657)	0.959 ± 0.074	0.984 ± 0.075
K7ESN3 and related entries (UniProt Q8N2G8)	1 ± 0.016	0.972 ± 0.03
K7EPJ5 and related entries (UniProt O60291)	0.995 ± 0.021	1.02 ± 0.047
K7EKG9 and related entries (UniProt Q14CW9)	1.02 ± 0.029	1.02 ± 0.019
MED7 (UniProt O43513)	1 ± 0.03	0.995 ± 0.018
UniProt O14965 and related entries	1 ± 0.014	1.01 ± 0.032
TOR1A (UniProt O14656)	1.04 ± 0.023	1.05 ± 0.045
UniProt O43709 and related entries	1.06 ± 0.021	1.004 ± 0.01
UniProt O43303 and related entries	1.02 ± 0.014	0.994 ± 0.02
UniProt O43164 and related entries	1 ± 0.028	0.999 ± 0.024
UniProt O14639 and related entries	1 ± 0.012	0.96 ± 0.07
UniProt O00182 and related entries	0.998 ± 0.047	0.987 ± 0.061

Some values from the entries so far:
UniProt O14639 and related entries – NP40-soluble protein abundance (concentration: 0.1mM): 1 ± 0.012
AGPS (UniProt O00116) – NP40-soluble protein abundance (concentration: 0.5mM): 0.995 ± 0.011
UniProt O14965 and related entries – NP40-soluble protein abundance (concentration: 0.1mM): 1 ± 0.014
UniProt O00221 and related entries – NP40-soluble protein abundance (concentration: 0.5mM): 1.01 ± 0.0032
K7EPJ5 and related entries (UniProt O60291) – NP40-soluble protein abundance (concentration: 0.1mM): 0.995 ± 0.021

Following part.

Target	NP40-soluble protein abundance (concentration: 0.1mM)	NP40-soluble protein abundance (concentration: 0.5mM)
UniProt O14523 and related entries	0.978 ± 0.042	0.986 ± 0.019
ACOX3 (UniProt O15254)	1.01 ± 0.026	0.961 ± 0.046
UniProt O43683 and related entries	0.9756 ± 0.0068	0.951 ± 0.02
K7EKW4 and related entries (UniProt Q96AB3)	1.03 ± 0.042	1.03 ± 0.036
SLC25A20 (UniProt O43772)	1.02 ± 0.025	1 ± 0.017
PHGDH (UniProt O43175)	0.831 ± 0.17	1 ± 0.028
RFXAP (UniProt O00287)	0.988 ± 0.033	1 ± 0.034
UniProt O43148 and related entries	0.9841 ± 0.0061	1 ± 0.026
UniProt O14647 and related entries	0.9867 ± 0.0055	1.08 ± 0.047
UniProt O00567	1.03 ± 0.013	1.04 ± 0.015
UniProt O00754 and related entries	0.975 ± 0.04	0.974 ± 0.032
UniProt O15037	0.995 ± 0.045	0.975 ± 0.011
UniProt O00499-2|O00499-4|O00499-6|O00499-7|O00499-9	0.997 ± 0.0075	0.992 ± 0.033
M0R2Z9 and related entries (UniProt Q8IX01)	1.03 ± 0.043	1.03 ± 0.039
UniProt O15371 and related entries	1.03 ± 0.027	1.03 ± 0.028
K7ESP4 and related entries (UniProt Q8WVC6)	1.01 ± 0.054	1.06 ± 0.037
K7ERF1 and related entries (UniProt Q9UBQ5)	0.999 ± 0.022	1.013 ± 0.0081
SGTA (UniProt O43765)	1.01 ± 0.088	1.16 ± 0.23
STX6 (UniProt O43752)	1.01 ± 0.028	0.988 ± 0.018
RRP9 (UniProt O43818)	0.992 ± 0.018	0.998 ± 0.034

Target	NP40-soluble protein abundance (concentration: 0.1mM)	NP40-soluble protein abundance (concentration: 0.5mM)
K7EL68 and related entries (UniProt Q16543)	0.984 ± 0.032	1.03 ± 0.065
UniProt O00628 and related entries	1.002 ± 0.01	1.01 ± 0.037
SCAMP1 (UniProt O15126)	0.991 ± 0.019	1 ± 0.041
UniProt O00463 and related entries	0.971 ± 0.022	0.938 ± 0.013
K7EMK7 and related entries (UniProt Q04725)	0.988 ± 0.019	1.0146 ± 0.00093
COPE (UniProt O14579)	1.04 ± 0.071	1.07 ± 0.087
TAF4 (UniProt O00268)	1 ± 0.078	1.02 ± 0.046
ARPC1B (UniProt O15143)	0.9851 ± 0.0097	0.995 ± 0.046
BACH1 (UniProt O14867)	0.9883 ± 0.005	0.982 ± 0.035
IPO8 (UniProt O15397)	0.99 ± 0.035	0.97 ± 0.03
K7EJP7 and related entries (UniProt Q7Z4V5)	0.988 ± 0.023	1.01 ± 0.058
MRPS12 (UniProt O15235)	1.02 ± 0.043	0.998 ± 0.055
AIP (UniProt O00170)	0.98111 ± 0.0003	0.993 ± 0.018
M0R208 and related entries (UniProt Q16740)	0.992 ± 0.03	1.01 ± 0.059
O14925 and related entries (UniProt Q5SRD1+O14925)	1.001 ± 0.0041	1 ± 0.012
UniProt O00764 and related entries	1.02 ± 0.02	0.997 ± 0.034
SLC33A1 (UniProt O00400)	1 ± 0.052	1.02 ± 0.051
K7EJ91 and related entries (UniProt Q8N0Y2)	1.019 ± 0.0013	1.02 ± 0.033
IGF2BP3 (UniProt O00425)	0.995 ± 0.016	0.998 ± 0.036
UniProt O15066 and related entries	1.02 ± 0.022	1.03 ± 0.017
